In test [1] the target is T1, HA-EZHIP (EZH Inhibitory Protein, CXorf67) (human) (UniProt Q86X51).
T1 sequence: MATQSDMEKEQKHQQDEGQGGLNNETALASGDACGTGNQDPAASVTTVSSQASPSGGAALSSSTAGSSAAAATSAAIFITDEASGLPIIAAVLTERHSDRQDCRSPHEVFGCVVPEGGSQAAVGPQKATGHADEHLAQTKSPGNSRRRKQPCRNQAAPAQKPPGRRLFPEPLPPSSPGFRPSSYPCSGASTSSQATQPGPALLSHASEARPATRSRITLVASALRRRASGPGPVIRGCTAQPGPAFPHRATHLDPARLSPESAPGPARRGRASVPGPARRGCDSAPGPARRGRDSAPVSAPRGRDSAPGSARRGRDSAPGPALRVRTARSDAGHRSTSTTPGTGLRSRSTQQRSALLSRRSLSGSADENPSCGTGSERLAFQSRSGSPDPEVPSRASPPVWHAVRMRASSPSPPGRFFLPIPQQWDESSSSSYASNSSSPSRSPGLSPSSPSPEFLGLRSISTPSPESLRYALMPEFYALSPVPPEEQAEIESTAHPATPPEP
The test can be described thus: co-IP; overexpressed constructs in transfected HEK293T, U2OS or HeLa cells; NP40 lysis buffer (50 mM Tris-HCl pH 8.0, 150 mM NaCl, 1% Igepal CA-630); HA-beads, Flag M2 affinity gel or GFP-Trap agarose, 2 h at 4 °C; western blot; Benzonase at first, omitted later as it did not affect …. A general note: Immunoblotting shows a protein as a band on a membrane.

Sequences of proteins named here, by UniProt entry; tags and fusion partners are left off.
UniProt A6NHR9: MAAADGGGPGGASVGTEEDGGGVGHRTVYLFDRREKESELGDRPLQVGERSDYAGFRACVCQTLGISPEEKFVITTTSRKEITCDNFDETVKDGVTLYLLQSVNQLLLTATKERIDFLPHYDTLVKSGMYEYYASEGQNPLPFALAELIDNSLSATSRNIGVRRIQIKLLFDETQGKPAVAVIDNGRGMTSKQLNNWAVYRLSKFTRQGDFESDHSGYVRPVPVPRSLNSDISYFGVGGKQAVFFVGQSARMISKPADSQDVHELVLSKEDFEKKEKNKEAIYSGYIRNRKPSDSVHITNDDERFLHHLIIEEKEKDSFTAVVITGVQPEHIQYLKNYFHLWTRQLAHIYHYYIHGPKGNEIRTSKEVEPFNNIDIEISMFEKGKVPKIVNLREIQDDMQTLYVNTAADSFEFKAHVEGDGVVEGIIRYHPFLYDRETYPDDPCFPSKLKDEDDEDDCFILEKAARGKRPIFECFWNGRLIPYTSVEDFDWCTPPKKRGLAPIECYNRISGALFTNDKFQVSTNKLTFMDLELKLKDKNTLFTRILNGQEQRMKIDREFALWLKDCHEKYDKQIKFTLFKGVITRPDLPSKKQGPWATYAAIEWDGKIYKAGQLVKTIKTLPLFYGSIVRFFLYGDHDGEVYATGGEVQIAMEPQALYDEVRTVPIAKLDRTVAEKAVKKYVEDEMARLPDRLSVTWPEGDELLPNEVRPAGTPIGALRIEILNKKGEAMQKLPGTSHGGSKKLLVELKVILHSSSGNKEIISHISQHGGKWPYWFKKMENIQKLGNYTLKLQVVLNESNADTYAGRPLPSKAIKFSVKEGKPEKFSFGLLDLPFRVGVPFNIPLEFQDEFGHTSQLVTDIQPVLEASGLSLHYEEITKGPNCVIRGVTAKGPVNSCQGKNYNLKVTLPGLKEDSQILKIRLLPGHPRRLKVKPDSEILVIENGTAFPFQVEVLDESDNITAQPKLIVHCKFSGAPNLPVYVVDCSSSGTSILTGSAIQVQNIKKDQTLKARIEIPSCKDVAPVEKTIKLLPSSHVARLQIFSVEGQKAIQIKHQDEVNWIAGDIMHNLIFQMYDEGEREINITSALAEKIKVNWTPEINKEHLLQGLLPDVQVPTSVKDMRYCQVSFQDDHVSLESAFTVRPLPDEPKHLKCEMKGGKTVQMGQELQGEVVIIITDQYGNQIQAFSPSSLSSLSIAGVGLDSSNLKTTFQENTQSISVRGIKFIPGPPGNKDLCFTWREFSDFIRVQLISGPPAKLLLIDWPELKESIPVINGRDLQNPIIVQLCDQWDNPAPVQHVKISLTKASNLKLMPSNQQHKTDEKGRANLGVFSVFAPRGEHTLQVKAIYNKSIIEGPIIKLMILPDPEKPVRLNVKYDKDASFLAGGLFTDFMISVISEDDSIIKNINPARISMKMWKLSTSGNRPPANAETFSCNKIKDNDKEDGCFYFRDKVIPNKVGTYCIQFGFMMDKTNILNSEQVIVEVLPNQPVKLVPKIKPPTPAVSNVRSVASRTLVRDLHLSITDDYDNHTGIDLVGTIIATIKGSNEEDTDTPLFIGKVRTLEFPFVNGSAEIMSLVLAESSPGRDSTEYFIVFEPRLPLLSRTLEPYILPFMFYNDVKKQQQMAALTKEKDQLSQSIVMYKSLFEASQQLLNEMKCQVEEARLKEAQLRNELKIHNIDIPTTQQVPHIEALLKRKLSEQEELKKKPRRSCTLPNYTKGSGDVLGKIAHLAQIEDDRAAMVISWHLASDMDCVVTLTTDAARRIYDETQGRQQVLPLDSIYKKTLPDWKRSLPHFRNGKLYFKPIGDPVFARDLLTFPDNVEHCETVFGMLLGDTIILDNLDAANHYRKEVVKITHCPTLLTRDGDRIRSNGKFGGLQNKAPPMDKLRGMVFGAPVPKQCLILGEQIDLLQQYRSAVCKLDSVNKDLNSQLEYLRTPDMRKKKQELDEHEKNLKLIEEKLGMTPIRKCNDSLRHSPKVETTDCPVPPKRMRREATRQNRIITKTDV
UniProt Q9Y265: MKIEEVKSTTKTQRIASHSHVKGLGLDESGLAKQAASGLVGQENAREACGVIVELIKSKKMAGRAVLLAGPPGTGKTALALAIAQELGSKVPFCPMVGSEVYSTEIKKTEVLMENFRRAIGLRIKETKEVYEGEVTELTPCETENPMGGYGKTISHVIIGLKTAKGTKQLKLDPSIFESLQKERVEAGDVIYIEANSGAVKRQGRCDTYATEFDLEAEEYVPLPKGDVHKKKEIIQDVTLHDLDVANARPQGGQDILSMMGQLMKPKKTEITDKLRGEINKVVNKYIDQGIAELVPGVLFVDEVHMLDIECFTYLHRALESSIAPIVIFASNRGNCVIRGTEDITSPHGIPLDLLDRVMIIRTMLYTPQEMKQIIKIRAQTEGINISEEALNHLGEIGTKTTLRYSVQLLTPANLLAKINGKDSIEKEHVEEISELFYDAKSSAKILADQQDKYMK

Test [2] deals with 3xHA-SMCHD1 (human) (UniProt A6NHR9). The test is described as above.
Test [3] concerns the target GFP-SMCHD1 (GFP-tagged Structural Maintenance of Chromosomes Hinge Domain Containing 1) (human) (UniProt A6NHR9). Described as above.
Test [4] has the same target. Nature of the test: co-IP; GFP-pulldown of GFP-SMCHD1 from stable GFP-SMCHD1 U2OS cells; western blot for the endogenous partner.
Test [5] deals with T2, endogenous EZHIP (HEK293T and HeLa cells) (human (endogenous in HEK293T, HeLa)) (UniProt Q86X51).
T2 sequence: T1 sequence
The test can be described thus: co-IP; endogenous proteins; antibody (1 µg) conjugated to Dynabeads protein A and protein G (3:1); lysates of HEK293T, U2OS, HeLa cells or control myoblasts; western blot.

Test [6] deals with RuvB Like AAA ATPase 1 (RUVBL1), endogenous (human (endogenous in HEK293T, U2OS, HeLa, myoblasts)) (UniProt Q9Y265). The description is as above.
In test [7] the target is GFP-SMCHD1 (GFP-tagged Structural Maintenance of Chromosomes Hinge Domain Containing 1) (human) (UniProt A6NHR9). The test can be described thus: co-IP; overexpressed constructs in transfected HEK293T, U2OS or HeLa cells; NP40 lysis buffer (50 mM Tris-HCl pH 8.0, 150 mM NaCl, 1% Igepal CA-630); HA-beads, Flag M2 affinity gel or GFP-Trap agarose, 2 h at 4 °C; western blot; Benzonase at first, omitted later as it did not affect …. The source holds these as a separate data set.

In test [8] the target is 3xFLAG-SMCHD1 (human) (UniProt A6NHR9). The description is as above.

These are yes or no findings as the source states them, for the method shown. Binding seen in cells or lysates may run through a third protein. Some binding calls cover weakened binding; strength is not graded here. For some assays here: Tags and fused reporters may be left off the sequences shown.

For the molecule “3xFLAG-SMCHD1 (from UniProt A6NHR9 1-2005)”, the binding result in test [1] is “binds”.

For “RuvB Like AAA ATPase 1 (RUVBL1), endogenous (from UniProt Q9Y265 1-456)”, the binding entry in test [2], in test [3] and in test [4] was “binds” throughout. On to “endogenous SMCHD1 (from UniProt A6NHR9 1-2005)”, for which the binding entry in test [5] and in test [6] was “binds” each time.

B1: RAD21 (cohesin complex component) (protein, UniProt O60216 1-631)
chain: MFYAHFVLSKRGPLAKIWLAAHWDKKLTKAHVFECNLESSVESIISPKVKMALRTSGHLLLGVVRIYHRKAKYLLADCNEAFIKIKMAFRPGVVDLPEENREAAYNAITLPEEFHDFDQPLPDLDDIDVAQQFSLNQSRVEEITMREEVGNISILQENDFGDFGMDDREIMREGSAFEDDDMLVSTTTSNLLLESEQSTSNLNEKINHLEYEDQYKDDNFGEGNDGGILDDKLISNNDGGIFDDPPALSEAGVMLPEQPAHDDMDEDDNVSMGGPDSPDSVDPVEPMPTMTDQTTLVPNEEEAFALEPIDITVKETKAKRKRKLIVDSVKELDSKTIRAQLSDYSDIVTTLDLAPPTKKLMMWKETGGVEKLFSLPAQPLWNNRLLKLFTRCLTPLVPEDLRKRRKGGEADNLDEFLKEFENPEVPREDQQQQHQQRDVIDEPIIEEPSRLQESVMEASRTNIDESAMPPPPPQGVKRKAGQIDPEPVMPPQQVEQMEIPPVELPPEEPPNICQLIPELELLPEKEKEKEKEKEDDEEEEDEDASGGDQDQEERRWNKRTQQMLHGLQRALAKTGAESISLLELCRNTNRKQAAAKFYSFLVLKKQQAIELTQEEPYSDIIATPGPRFHII
In the case of B1, in test [7], the binding entry is listed as “binds”.

B2: HA-EZHIP (EZH Inhibitory Protein, CXorf67) (protein, UniProt Q86X51 1-503)
chain: T1 sequence
As for B2, in test [8], the binding result is given as “binds”.

The record behind these values is PMC8654949.
